Test results from publication PMC8564014.
These are yes or no findings as the source states them, for the method shown. In cells and extracts the contact can be indirect. These calls come from enrichment with a bait or labelling near it, and not all partners need be listed.

Amino acid sequences for entries named in this document (tags omitted).
UniProt Q13114: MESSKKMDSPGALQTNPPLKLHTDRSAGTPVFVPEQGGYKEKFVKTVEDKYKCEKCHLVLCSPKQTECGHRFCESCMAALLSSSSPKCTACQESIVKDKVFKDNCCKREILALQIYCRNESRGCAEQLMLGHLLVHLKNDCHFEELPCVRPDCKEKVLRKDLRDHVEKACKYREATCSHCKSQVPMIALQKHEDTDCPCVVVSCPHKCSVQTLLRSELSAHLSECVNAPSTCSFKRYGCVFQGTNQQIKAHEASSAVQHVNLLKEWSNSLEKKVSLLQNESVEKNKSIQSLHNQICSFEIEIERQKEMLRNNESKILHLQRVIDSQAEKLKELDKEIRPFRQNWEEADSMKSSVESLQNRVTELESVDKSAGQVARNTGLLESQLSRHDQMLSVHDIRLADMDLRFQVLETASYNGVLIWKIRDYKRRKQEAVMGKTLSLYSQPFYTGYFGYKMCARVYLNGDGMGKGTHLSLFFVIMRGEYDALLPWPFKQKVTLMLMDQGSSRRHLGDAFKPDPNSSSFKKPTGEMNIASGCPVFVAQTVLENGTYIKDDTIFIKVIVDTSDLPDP
UniProt Q9ULZ3: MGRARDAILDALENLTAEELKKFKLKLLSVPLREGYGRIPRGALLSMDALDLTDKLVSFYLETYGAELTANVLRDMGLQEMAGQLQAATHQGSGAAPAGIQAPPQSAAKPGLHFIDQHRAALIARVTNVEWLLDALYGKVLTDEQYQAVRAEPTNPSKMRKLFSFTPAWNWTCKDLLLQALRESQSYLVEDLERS
UniProt O00459: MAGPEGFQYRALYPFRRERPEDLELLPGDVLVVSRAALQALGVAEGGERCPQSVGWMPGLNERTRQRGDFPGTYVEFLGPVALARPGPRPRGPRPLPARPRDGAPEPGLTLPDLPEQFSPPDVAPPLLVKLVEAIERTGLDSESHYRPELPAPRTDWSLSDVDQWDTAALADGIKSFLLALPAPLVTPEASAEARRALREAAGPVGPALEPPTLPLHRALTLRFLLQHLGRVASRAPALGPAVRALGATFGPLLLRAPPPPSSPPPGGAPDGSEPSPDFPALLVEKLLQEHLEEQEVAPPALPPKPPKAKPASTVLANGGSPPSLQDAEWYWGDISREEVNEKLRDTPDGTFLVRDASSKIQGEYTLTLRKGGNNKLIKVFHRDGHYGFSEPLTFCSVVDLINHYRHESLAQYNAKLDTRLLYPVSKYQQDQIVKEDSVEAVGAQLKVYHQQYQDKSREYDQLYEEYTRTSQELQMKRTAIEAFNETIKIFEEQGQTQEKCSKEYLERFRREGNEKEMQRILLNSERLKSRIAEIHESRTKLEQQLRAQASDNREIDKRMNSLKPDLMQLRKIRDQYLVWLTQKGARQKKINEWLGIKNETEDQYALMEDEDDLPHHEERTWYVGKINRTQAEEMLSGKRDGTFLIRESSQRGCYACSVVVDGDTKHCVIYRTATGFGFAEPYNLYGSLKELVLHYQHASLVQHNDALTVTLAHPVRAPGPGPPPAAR
UniProt Q01518: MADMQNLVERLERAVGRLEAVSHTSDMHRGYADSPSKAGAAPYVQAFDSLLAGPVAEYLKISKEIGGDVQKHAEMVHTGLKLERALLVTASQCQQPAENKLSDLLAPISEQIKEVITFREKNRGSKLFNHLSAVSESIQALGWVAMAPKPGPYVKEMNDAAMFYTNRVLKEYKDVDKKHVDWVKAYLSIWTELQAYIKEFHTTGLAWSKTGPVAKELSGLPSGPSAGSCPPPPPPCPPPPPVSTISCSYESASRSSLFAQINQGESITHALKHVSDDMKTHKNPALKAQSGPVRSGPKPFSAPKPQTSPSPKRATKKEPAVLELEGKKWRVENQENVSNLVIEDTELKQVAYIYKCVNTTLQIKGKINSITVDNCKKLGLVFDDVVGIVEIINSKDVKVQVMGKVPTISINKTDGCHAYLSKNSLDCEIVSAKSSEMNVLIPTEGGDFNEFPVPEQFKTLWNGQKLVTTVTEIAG
UniProt Q9BWD1: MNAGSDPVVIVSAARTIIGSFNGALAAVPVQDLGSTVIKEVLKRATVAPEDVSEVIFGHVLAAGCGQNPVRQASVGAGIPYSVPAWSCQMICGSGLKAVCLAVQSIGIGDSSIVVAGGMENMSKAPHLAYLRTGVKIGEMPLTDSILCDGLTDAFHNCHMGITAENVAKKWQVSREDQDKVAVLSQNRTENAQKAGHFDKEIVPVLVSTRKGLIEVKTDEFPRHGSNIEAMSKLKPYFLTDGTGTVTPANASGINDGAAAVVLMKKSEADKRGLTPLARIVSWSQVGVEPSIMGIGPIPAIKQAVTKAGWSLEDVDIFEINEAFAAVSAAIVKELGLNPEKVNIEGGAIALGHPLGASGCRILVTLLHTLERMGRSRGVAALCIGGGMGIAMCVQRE
UniProt O76083: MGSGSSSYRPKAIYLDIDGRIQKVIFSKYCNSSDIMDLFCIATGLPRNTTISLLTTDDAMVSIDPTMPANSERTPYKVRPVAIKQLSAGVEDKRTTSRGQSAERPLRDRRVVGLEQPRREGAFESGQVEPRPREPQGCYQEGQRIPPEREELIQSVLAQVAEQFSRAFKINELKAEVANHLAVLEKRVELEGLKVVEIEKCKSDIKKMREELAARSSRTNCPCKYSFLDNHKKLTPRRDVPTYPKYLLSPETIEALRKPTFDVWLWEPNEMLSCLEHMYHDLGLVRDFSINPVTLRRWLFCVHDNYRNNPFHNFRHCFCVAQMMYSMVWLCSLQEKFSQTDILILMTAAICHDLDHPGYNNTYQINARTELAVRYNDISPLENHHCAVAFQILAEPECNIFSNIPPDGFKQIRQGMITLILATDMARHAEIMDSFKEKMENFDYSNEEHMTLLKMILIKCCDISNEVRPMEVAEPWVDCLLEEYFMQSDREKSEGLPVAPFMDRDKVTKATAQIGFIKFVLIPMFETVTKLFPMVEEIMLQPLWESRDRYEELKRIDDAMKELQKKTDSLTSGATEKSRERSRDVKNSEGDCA
UniProt P09211: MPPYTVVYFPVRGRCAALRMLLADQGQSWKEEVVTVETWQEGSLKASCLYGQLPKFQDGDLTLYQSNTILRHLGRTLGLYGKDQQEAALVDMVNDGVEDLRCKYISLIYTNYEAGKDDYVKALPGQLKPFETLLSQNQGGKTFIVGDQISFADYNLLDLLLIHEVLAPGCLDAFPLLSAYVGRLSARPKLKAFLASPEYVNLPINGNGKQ
UniProt P60953: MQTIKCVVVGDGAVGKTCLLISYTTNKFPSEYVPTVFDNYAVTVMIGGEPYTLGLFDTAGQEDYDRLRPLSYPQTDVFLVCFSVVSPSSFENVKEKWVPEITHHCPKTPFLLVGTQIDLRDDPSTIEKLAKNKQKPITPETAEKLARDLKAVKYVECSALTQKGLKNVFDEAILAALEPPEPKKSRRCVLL
UniProt P78417: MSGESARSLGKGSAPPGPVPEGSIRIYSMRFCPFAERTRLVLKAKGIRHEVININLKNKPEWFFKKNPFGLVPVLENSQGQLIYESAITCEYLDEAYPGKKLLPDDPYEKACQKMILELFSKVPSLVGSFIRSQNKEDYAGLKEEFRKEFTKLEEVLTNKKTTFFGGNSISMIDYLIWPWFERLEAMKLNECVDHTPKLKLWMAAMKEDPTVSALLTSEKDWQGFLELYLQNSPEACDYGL
UniProt Q99873: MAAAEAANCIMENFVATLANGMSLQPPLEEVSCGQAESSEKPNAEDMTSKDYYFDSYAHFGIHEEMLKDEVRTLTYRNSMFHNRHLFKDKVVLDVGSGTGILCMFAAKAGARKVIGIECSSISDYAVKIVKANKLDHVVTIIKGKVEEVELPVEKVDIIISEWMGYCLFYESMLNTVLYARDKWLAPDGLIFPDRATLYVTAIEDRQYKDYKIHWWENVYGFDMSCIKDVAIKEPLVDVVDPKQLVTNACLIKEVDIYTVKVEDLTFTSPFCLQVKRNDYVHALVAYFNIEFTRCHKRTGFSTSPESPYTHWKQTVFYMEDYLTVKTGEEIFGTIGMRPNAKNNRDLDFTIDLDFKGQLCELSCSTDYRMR

Biological target: TRAF3-SBP-6xHis (in transduced human MM 8226 cells) (human) (UniProt Q13114)
Assay: affinity purification with mass spectrometry; mitochondria isolated from 8226 cells transduced with pUB-TRAF3-SBP-6xHis, lysed in 1% CHAPS lysis buffer; TRAF3-SBP-6xHis captured on Streptavidin-Sepharose beads, 5 washes; LC-MS/MS of gel slices; cells transduced with FLAG-TRAF3 as negative control

Substance | binding
PYCARD (from UniProt Q9ULZ3 1-195) | binds
PIK3R2 (from UniProt O00459 1-728) | binds
CAP1 (from UniProt Q01518 1-475) | binds
ACAT2 (from UniProt Q9BWD1 1-397) | binds
PDE9A (from UniProt O76083 1-593) | binds
GSTP1 (from UniProt P09211 1-210) | binds
CSNK2A2, endogenous in 8226 cells (from UniProt P19784 1-350) | binds
CDC42 (from UniProt P60953 1-191) | binds
GPI (from UniProt P06744 1-558) | binds
CKMT1A (from UniProt P12532 40-417) | binds
GSTO1 (from UniProt P78417 1-241) | binds
PRMT1 (from UniProt Q99873 1-371) | binds
